Some of the results follow. The main result of the screen is listed elsewhere. These columns were measured beside it and carry no call. Compounds called inactive in the main read-out are mostly missing here. Words in brackets tell the shape of the fitted curve; partial curves, single points and poor fits give uncertain potencies.
Experiment: qHTS Assay to Find Inhibitors of Chronic Active B-Cell Receptor Signaling
Settings: ABC-DLBCL IkBa-CBG/CBR reporter, luminescence ratio (green luciferase fused to IkBa over red control in TMD8 lymphoma cells), 4 h
Procedure, shortened: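 Doxycycline induced both beetle luciferases in TMD8 lymphoma cells; IKK-driven degradation limits the IkappaBalpha-fused green signal, while red luminescence normalises for cell number and nonspecific effects. Compounds tested up to 46 uM, 4 hrs.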

[1] = measured here: CBR red luminescence, cell number
[2] = measured here: IkBa-CBG green luminescence

| SMILES | AC50 [1] | AC50 [2] |
| --- | --- | --- |
| c1csc(-c2nc(N3CCCCC3)no2)c1 | 7.94 µM [rising, partial curve, poor fit] | – |
| CCSc1nnc(NC(=O)c2nc(-c3ccccc3)n(-c3ccccc3)n2)s1 | 20 µM [rising, single point] | – |
| C/C(=N\Nc1cc(N2CCCCC2)nc(C)n1)c1ccc(Br)cc1 | 6.31 µM [rising, single point] | – |
| COc1ccc2[nH]cc(CCNC(=O)Nc3ccccc3C)c2c1 | 7.08 µM [falling, partial curve, poor fit] | – |
| Cc1ccc(C(=O)OCc2nnc(-c3ccccc3)o2)s1 | 29.1 µM [rising, single point] | – |
| Cc1cccc(NC(=O)C(C)Oc2ccc(C)nc2[N+](=O)[O-])c1 (centres undefined) | 16.4 µM [rising, partial curve] | – |
| CCOC(=O)Cc1csc(NC(=S)NC(=O)c2ccccc2)n1 | – | 29.1 µM [falling, partial curve, poor fit] |
| OCCCCNCc1ccc(OCc2ccc(Cl)cc2)cc1 | 35.5 µM [falling, single point] | – |
| Cc1c(C(=O)N2CCOCC2)[nH]c2c1C(=O)CC(c1ccc(Cl)cc1)C2 (centres undefined) | 8.91 µM [falling, partial curve, poor fit] | – |
| CN(C(=O)COc1ccccc1C(=O)NCCOc1ccccc1)c1ccccc1 | 16.4 µM [falling, single point] | – |
| Cc1ccc(COc2ccccc2C(=S)N2CCCC2)cc1 | 35.5 µM [rising, single point] | – |
| Cc1ccc(N(C(=O)c2ccc(S(=O)(=O)N3CCOCC3)cc2)C2C=CS(=O)(=O)C2)cc1 (centres undefined) | 1.16 µM [falling, full curve, poor fit] | – |
| O=C(OCc1cc([N+](=O)[O-])cc2c1OCOC2)c1ccccn1 | 31.6 µM [rising, single point] | – |
| Cc1cccc(C)c1-n1c(C)cc(/C=N/NC(N)=S)c1C | – | 32.6 µM [falling, partial curve, poor fit] |
| N#Cc1c(Cn2cncn2)nc(=O)n(-c2ccc(Cl)cc2)c1N | 8.91 µM [rising, partial curve] | – |
| CCCS(=O)(=O)n1nc(-c2ccc(C)cc2)cc1N | 29.1 µM [rising, single point] | – |
| O=C(CCl)N1CCN(C(=O)C2COc3ccccc3O2)CC1 (centres undefined) | 18.4 µM [falling, single point] | – |
| Cc1ccc(NC(=O)c2cc(-c3ccc4c(c3)OCO4)on2)cc1 | 20 µM [falling, partial curve, poor fit] | – |
| Cc1cc(Cl)ccc1OCCCC(=O)N1CCCc2ccccc21 | 2.06 µM [rising, partial curve, poor fit] | – |
| O=C(COC(=O)c1ccccc1NC(=O)c1ccco1)NCCC1=CCCCC1 | 25.9 µM [falling, single point] | – |
| CCS(=O)(=O)CCSc1nc2c(cc1C#N)CCCC2 | 23.1 µM [falling, single point] | – |
| CCN1CCCC1CNC(=O)c1ccc2c(=O)n(CCOC)c(=O)[nH]c2c1 (centres undefined) | 3.55 µM [falling, partial curve, poor fit] | – |

| SMILES | AC50 [1] | AC50 [2] |
| --- | --- | --- |
| O=C(CCl)Nc1ccccc1C(=O)Nc1ccc2c(c1)OCO2 | 12.6 µM [falling, single point] | – |
| CC(C)(C)c1ccc(C(=O)N2CCN(CCNC(=O)C(=O)Nc3ccc(F)cc3)CC2)cc1 | 1.12 µM [falling, full curve] | – |
| O=C(N/N=C/c1cc2c(cc1[N+](=O)[O-])OCO2)c1cccnc1 | 3.16 µM [rising, single point] | – |
| COc1ccc(-c2csc(C)n2)cc1Br | 25.1 µM [rising, single point] | – |
| CC1=C(C)/C(=N\OS(=O)(=O)c2ccccc2)C=CC1=O | 29.1 µM [falling, single point] | – |
| CCCCCN(C(=O)CCC(=O)OCc1cc(C(C)=O)ccc1OC)c1c(N)n(CCCC)c(=O)[nH]c1=O | 16.4 µM [rising, single point] | – |
| Cn1c(CNc2ccccc2O)nc2ccccc21 | 8.91 µM [falling, partial curve] | – |
| COc1ccc(N(CC(=O)N/N=C/c2ccccc2OC)S(=O)(=O)c2ccccc2)cc1 | 6.31 µM [falling, single point] | 3.98 µM [rising, single point] |
| O=C(Nc1nnc(SCc2cccc3ccccc23)s1)C1COc2ccccc2O1 (centres undefined) | 5.17 µM [rising, partial curve] | – |
| C=CCn1c(=O)[nH]c2cc(C(=O)N3CCN(c4cccc(Cl)c4)CC3)ccc2c1=O | 10 µM [falling, partial curve, poor fit] | – |
| O=C(c1cc(-c2ccccc2)nc2ccccc12)N1CCN(c2ccccc2O)CC1 | 22.4 µM [falling, single point] | – |
| CN1/C(=C\C(=O)CSc2cccc[n+]2[O-])C(C)(C)c2ccccc21 | 6.31 µM [falling, single point] | – |
| COc1ccc(CNCc2cc3c(C(C)(C)C)nn(-c4ccccc4)c3[nH]c2=O)cc1 | 29.1 µM [falling, single point] | – |
| CCC1CCCCN1C(=O)CSc1nc2c(c(=O)n(C)c(=O)n2C)n1C (centres undefined) | 3.16 µM [falling, partial curve, poor fit] | – |
| Cn1nc(C(=O)OCC(=O)c2ccccc2)c2ccccc2c1=O | 1.64 µM [rising, full curve, poor fit] | – |
| O=C(Nc1ncn[nH]1)c1c(Cl)ccc(Cl)c1Cl | 29.1 µM [falling, single point] | – |
| O=C(NCCO)c1cccc(S(=O)(=O)N2CCCCC2)c1 | 11.2 µM [rising, partial curve] | – |
| COc1ccc(N2CC(C)(C)C2=O)cc1 | 35.5 µM [rising, single point] | – |
| Cc1cc(C(=O)N/N=C/c2c(C)nn(-c3ccccc3)c2C)n[nH]1 | 0.355 µM [rising, full curve, poor fit] | – |
| COc1ccc(C(=O)C(CN2CCCC2)c2ccccc2)cc1 (centres undefined) | 15.8 µM [falling, partial curve] | – |
| COC(=O)c1sccc1NC(=O)Nc1cc(C)cc(C)c1 | 0.562 µM [falling, full curve] | – |
| O=C(CSc1cc(Cl)ccc1Cl)NCC1CCCO1 (centres undefined) | 29.1 µM [rising, single point] | – |

Reformatted as tab-separated lines: 4 of the compounds above
SMILES	AC50 [1]	AC50 [2]
CC(C)(C)c1ccc(C(=O)N2CCN(CCNC(=O)C(=O)Nc3ccc(F)cc3)CC2)cc1	1.12 µM [falling, full curve]	–
CCCCCN(C(=O)CCC(=O)OCc1cc(C(C)=O)ccc1OC)c1c(N)n(CCCC)c(=O)[nH]c1=O	16.4 µM [rising, single point]	–
COc1ccc(N(CC(=O)N/N=C/c2ccccc2OC)S(=O)(=O)c2ccccc2)cc1	6.31 µM [falling, single point]	3.98 µM [rising, single point]
O=C(c1cc(-c2ccccc2)nc2ccccc12)N1CCN(c2ccccc2O)CC1	22.4 µM [falling, single point]	–

(continued)

| SMILES | AC50 [1] | AC50 [2] |
| --- | --- | --- |
| COc1cc(NC(=O)c2cc(C)nc3ccccc23)cc(OC)c1OC | 3.16 µM [rising, partial curve, poor fit] | – |
| O=C(NC(=S)Nc1ccccc1O)c1ccccc1Cl | 1.26 µM [falling, full curve, poor fit] | – |
| CCOC(=O)C(CC)Sc1nc2c(cnn2-c2ccc(F)cc2)c(=O)[nH]1 (centres undefined) | 15.8 µM [rising, single point] | – |
| CN(Cc1ccccn1)Cc1nc(-c2ccc(Cl)cc2)no1 | 35.5 µM [falling, single point] | 17.8 µM [rising, single point] |
| O=[N+]([O-])c1ccc(CCn2ccnc2)cc1 | 0.447 µM [rising, full curve, poor fit] | – |
| O=C(NCCc1cn2ccccc2n1)c1cc(COc2c(F)cccc2F)on1 | 1.12 µM [falling, full curve] | – |
| COc1ccc(S(=O)(=O)N2CCCCCC2)cc1C(=O)Nc1ccc(C)cn1 | 29.1 µM [falling, single point] | – |
| CCCS(=O)(=O)N1CCCC(C(=O)NC(C)c2ccc3c(c2)OCCO3)C1 (centres undefined) | 23.1 µM [rising, single point] | – |
| CN(C)c1ccc(C(=S)NCc2ccco2)cc1 | 0.82 µM [falling, full curve] | – |
| O=C(CNCc1cccs1)Nc1ccc(OC(F)(F)F)cc1 | 1 µM [rising, full curve] | – |
| CC(C)(C)C1CCc2c(sc3ncn(N)c(=N)c23)C1 (centres undefined) | 7.08 µM [rising, full curve, poor fit] | – |
| CCCc1c2ccccc2nc2ccccc12 | 0.00461 µM [falling, full curve, poor fit] | 25.9 µM [rising, partial curve, poor fit] |
| COCCn1nnnc1CN1CCC(C)CC1 | 29.1 µM [rising, single point] | – |
| COc1ccc(-c2cc(C(F)F)n3ncc(C(=O)N4CCN(C)CC4)c3n2)cc1 | 32.6 µM [rising, single point] | – |
| CNc1snc(C)c1C(=O)OCC(=O)c1ccc(OC)c(F)c1 | 0.58 µM [rising, full curve, poor fit] | – |
| Cc1ccc(S(=O)(=O)Nc2ccc(C(=O)Nc3cc(C)on3)cc2)cc1 | 0.164 µM [falling, full curve, poor fit] | – |
| O=C(N=Nc1c(O)[nH]c2ccccc12)c1cccs1 | 1.41 µM [falling, full curve] | – |
| CN(C)C(CNC(=O)Nc1cccc(Cl)c1)c1cccnc1 (centres undefined) | 13 µM [rising, single point] | – |
| Cc1cc(SCc2ccc(Cl)c(Cl)c2)nc(=O)[nH]1 | 7.08 µM [rising, full curve, poor fit] | – |
| COc1ccc(-c2cc3nc4c(c(=O)n3[nH]2)CCC4)cc1 | 4.11 µM [falling, full curve, poor fit] | – |
| CCOC(=O)N1CCN(c2ccnc3cc(Cl)ccc23)CC1 | 15.8 µM [falling, single point] | – |
| COc1ccc(/C=C2\SC(=S)N(CCC(=O)NC3=NCCS3)C2=O)cc1OC | 1.84 µM [falling, full curve] | – |

From PubChem BioAssay AID493014 (National Center for Advancing Translational Sciences (NCATS), 2011)
